Source: US6645934B1, “Peptide with radio protective effect” (Eberhard-Karls-Universität Tübingen, priority 1997, dated 2003)
Some results were stated once for a whole list of compounds, not compound by compound. Some ranges recur; such a range may be that of the whole group of compounds.

Tested on: Normal human fibroblasts
Assay: Clonogenic assay with normal human fibroblasts under ionizing radiation
Format: cell-based
Details: single dose of 2 Gy; 16-hour pretreatment; 10 μM; FIG. 1
Description: The examination of the radioprotective effect of BBI and of modified forms of BBI was performed as a so-called clonogenic assay, which is described, for example, in K. Dittmann et al., Radiotherapy and Oncology 34 (1995), pages 137-143, and is explained briefly below.
Normal human fibroblasts were cultivated in Dulbecco's Modified Eagles Medium (DMEM) with 10% fetal calf serum under standard conditions. At each cell passage the number of cells was counted, and the cells were seed with a density of 2×10^4/cm^2 when subcultures were set up.
For the clonogenic assay, secondary fibroblasts were trypsinated with 0.05% trypsin and 0.1 EDTA, and seed at a cell density of 50 cells per cm^2 into six-well tissue culture dishes. The cells were cultivated with 2 ml DMEM with 20% fetal calf serum per well. […]
The cells were then cultivated for a further eight days in BBI-free culture medium in order to allow colonies to form. The cells were then fixed, stained, and counted; in the Figures, “K” indicates the absolute number of clones counted.
A clone is a colony or a cell cluster resulting from the division of one cell during the eight-day cultivation period. […] If many cells die when the cells are irradiated, then only a few clones will form after eight days; if many cells survive, then many clones may be counted after eight days of cultivation. […]

B1: BBI-A: BBI first reduced, cysteine residues then alkylated with iodoacetamide to prevent reoxidation (protein)
chain: DDESSKPCCDQCACTKSNPPQCRCSDMRLNSCHSACKSCICALSYPAQCFCVDITDFCYEPCKPSEDDKEN
Q: For B1, which “increase in the clonogenic survival of the irradiated human skin fibroblasts” value is on record?
A: 20-30%
